# In publication PMC8810869:
# Protein sequences, listed by entry. Tags and fused reporters are not part of them. Residues count along the entry.
# UniProt P11021, residues 19-654: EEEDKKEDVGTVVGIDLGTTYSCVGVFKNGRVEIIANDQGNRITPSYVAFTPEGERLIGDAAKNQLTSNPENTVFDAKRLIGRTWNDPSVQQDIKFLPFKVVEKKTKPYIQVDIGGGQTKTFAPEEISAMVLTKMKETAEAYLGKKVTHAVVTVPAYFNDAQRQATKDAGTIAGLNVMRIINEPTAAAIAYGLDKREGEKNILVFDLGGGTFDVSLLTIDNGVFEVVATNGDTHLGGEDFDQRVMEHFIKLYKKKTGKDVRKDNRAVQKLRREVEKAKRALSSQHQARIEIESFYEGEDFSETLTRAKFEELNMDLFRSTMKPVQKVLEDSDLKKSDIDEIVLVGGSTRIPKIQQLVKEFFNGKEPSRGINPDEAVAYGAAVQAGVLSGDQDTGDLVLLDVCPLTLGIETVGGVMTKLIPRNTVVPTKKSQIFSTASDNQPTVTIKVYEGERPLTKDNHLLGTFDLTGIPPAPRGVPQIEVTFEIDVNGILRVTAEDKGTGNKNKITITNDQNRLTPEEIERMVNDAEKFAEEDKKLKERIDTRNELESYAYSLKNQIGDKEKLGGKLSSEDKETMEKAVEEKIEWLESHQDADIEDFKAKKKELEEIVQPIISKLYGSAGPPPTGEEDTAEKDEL
# Results are given in words; binding and its absence hold for the method and conditions named. Binding seen in cells or lysates may run through a third protein. Some results given as binding are weak or reduced against the parent protein; the word gives no strength.
# Molecular target: GRP78 (human (endogenous in SW480 and HCT116)) (UniProt P11021)
# Assay: co-IP; endogenous proteins in SW480 and HCT116 cells; the co-immunoprecipitation protocol is not described
binder,measurement,value
"Transketolase (protein, UniProt P29401 1-623) MESYHKPDQQKLQALKDTANRLRISSIQATTAAGSGHPTSCCSAAEIMAVLFFHTMRYKSQDPRNPHNDRFVLSKGHAAPILYAVWAEAGFLAEAELLNLRKISSDLDGHPVPKQAFTDVATGSLGQGLGAACGMAYTGKYFDKASYRVYCLLGDGELSEGSVWEAMAFASIYKLDNLVAILDINRLGQSDPAPLQHQMDIYQKRCEAFGWHAIIVDGHSVEELCKAFGQAKHQPTAIIAKTFKGRGITGVEDKESWHGKPLPKNMAEQIIQEIYSQIQSKKKILATPPQEDAPSVDIANIRMPSLPSYKVGDKIATRKAYGQALAKLGHASDRIIALDGDTKNSTFSEIFKKEHPDRFIECYIAEQNMVSIAVGCATRNRTVPFCSTFAAFFTRAFDQIRMAAISESNINLCGSHCGVSIGEDGPSQMALEDLAMFRSVPTSTVFYPSDGVATEKAVELAANTKGICFIRTSRPENAIIYNNNEDFQVGQAKVVLKSKDDQVTVIGAGVTLHEALAAAELLKKEKINIRVLDPFTIKPLDRKLILDSARATKGRILTVEDHYYEGGIGEAVSSAVVGEPGITVTHLAVNRVPRSGKPAELLKMFGIDRDAIAQAVRGLITKA",binding,binds
